Assay results from US20080025931A1, “Cosmetic method for limiting age-related hollowing of the face” (priority 2006, published 2008).

Test system: human adipocytes obtained from the abdominal region
Experiment: Stimulation of lipogenesis by measuring the incorporation of 14C-acetate into the lipids
Format: cell-based
Details: interference with scintillation assay
Protocol: The activity of a Vitreoscilla filiformis cell extract as prepared according to Example 1 on a local adipose development was evaluated. The study was carried out on human adipocytes obtained from the abdominal region. Various parameters representing the adipocyte physiology were analysed: • a) stimulation of lipogenesis by measurement of the incorporation of ^14C-acetate into lipids; • b) stimulation of adipocyte differentiation by measuring the expression of adipocyte differentiation markers: LPL (lipoprotein lipase, involved in the storage of fat; • c) monitoring of the enrichment in lipids by specific staining (AdipoRed™) and imaging; • d) monitoring of the cell size/size distribution by flow cytometry and fluorescent labelling (AdipoRed™). Stimulation of Lipogenesis by Measuring the Incorporation of ^14C-acetate into the Lipids The adipocytes were isolated after an abdominal plastic surgery operation and then incubated in the presence of collagenase and then washed and taken up in test medium. […] After 4 h of treatment, the lipids were extracted with methanol/chloroform/water and the incorporated radioactivity was counted by liquid scintillation.

Row | SMILES | % quenching (20 μM) [%] | % quenching (1 μM) [%]
1 | C/C=C/C/C=C/CCC(=O)[C@H]1O[C@H]1C(N)=O [Cerulenin] | 0 | –
2 | CC(C)NCC(O)c1ccc(O)c(O)c1 (centres unmarked) [Isoproterenol] | – | 0
